Data taken from ChEMBL document CHEMBL3988442, “University of Dundee, Small-Polar-MMV Screening Library” (2021).

Each number is a percent effect as filed. The record does not define 0% and 100%; most values in the screen are far below 50% and negative numbers occur (in some assays of this library far below -100). This is an unselected part of the compounds tested. A dash means the value is not listed here; it may have been measured.

A: 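Whole-cell assay for inhibitors of Mycobacterium tuberculosis growth, labelled Cornell in the record; the read-out is not stated. The concentration is filed as 10 mM, unlikely as a test dose, so the dose is not known. The record gives no direction; compounds strong in two other growth screens of this library score well above the rest, so higher reads as stronger inhibition. Of about 53,000 compounds tested this way, about 900 (1.7%) reached 50% or more in at least one test.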
B: 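Assay on Mycobacterium tuberculosis, filed only as a heat shock assay from Cornell; the read-out is not stated. The concentration is filed as 10 mM, unlikely as a test dose, so the dose is not known. The record gives no direction; compounds that gave an IC50 in retests scored well above the rest, so higher reads as stronger inhibition. About 69,000 compounds were tested under these conditions; 1.4% (about 930) showed 50% or more at least once.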

SMILES | A | B
Cc1c(C)n(-c2ccccn2)c2nc3c(c(N)c12)CCCCC3 | 19.88% | 16.51%
O=C(O)C(F)(F)F.O=C(O)C(F)(F)F.[H][C@@]12CN(CCOC)C[C@]1([H])[C@H](OC)CCN2Cc1cnn(C)c1 | 16.68% | -30.92%
CCCn1cnnc1CNC(=O)CC1C(=O)NCCN1CC=C(C)C (stereo not given) | 7.115% | -9.825%
Cc1ccc(N(CCC#N)C(=O)CCc2cccnc2)cc1C | 14.96% | -3.181%
COCC(=O)N1CCCC(C(=O)N(C)CCCc2cnn(C)c2)C1 (stereo not given) | 12.61% | 0.2046%
Cc1cc(C)nc(C2CCCN2C(=O)c2coc(C)n2)n1 (stereo not given) | -17.55% | -20.05%
c1cc(CNCC2CNc3ccnn3C2)cc(N2CCOCC2)n1 (stereo not given) | -40.18% | -0.6122%
CCN(Cc1ccccc1)C(=O)c1cc(C2CCCN2C)ccn1 (stereo not given) | -37.91% | -11.19%
OCCNc1nc(Nc2ccccc2)c2nccnc2n1 | -8.984% | -21.59%
O=C(O)C(F)(F)F.O=C1N(CC2CC2)CCC12CCN(CC1CC1)CC2 | 1.294% | -12.78%
CC(C)(C)CN1CCCC12CCN(S(=O)(=O)c1ccccc1)C2.O=C(O)C(F)(F)F (stereo not given) | 24.92% | 16.58%
COc1ccccc1OCC(=O)NS(=O)(=O)c1ccc(Br)s1 | 31.4% | 11.9%
CN(C)c1ccc(CNCc2ccc(N3CCOCC3)cc2)cn1 | 8.822% | -15.62%
CC(C)c1nn(C)c(N2CCOCC2)c1CNCc1nncn1C | -5.649% | 18.84%
CCCSc1ccccc1NC(=O)N1CCN(C(=O)c2ccc[nH]2)CC1 | -24.38% | -13.42%
CN1CCN(CC2CC2)C(=O)c2cnc(N3CCC(CO)CC3)nc21 | 15.04% | -13.45%
CC(=O)N1CCCC1c1ccc(-c2c(C)noc2C)cn1 (stereo not given) | 4.525% | 6.602%
Cc1cc(Br)c(O)c(-c2nc(N3CCOCC3)sc2C)c1 | 3.94% | 5.777%
O=C(CCS(=O)(=O)C1CCCC1)N1CCCC(n2ccnc2)C1 (stereo not given) | - | -2.037%
COCCc1nc(CSc2ccncc2)n(C)n1 | - | -28.37%
COc1ccc(-n2nnc(C(=O)NC(C)C)c2C2CC2)cc1 | -1.499% | 10.89%
CC(C)(C)CN1CC(COc2ccccc2)Oc2ccncc2S1(=O)=O (stereo not given) | -35.52% | -36.95%
[H][C@]12CCC[C@@]1(COCC1CCOCC1)CN(S(C)(=O)=O)C2 | 22.23% | -26.61%
COc1ccc(CNC(=O)NCC(=O)NC2CC2)c(C(F)(F)F)c1 | -28.32% | -6.693%
CN(CC(=O)N(C)C1CCCCC1)Cc1nc2ccccc2c(=O)[nH]1 | 34.18% | 97.32%
c1ccc2sc(NCC3(N4CCOCC4)CCSC3)nc2c1 (stereo not given) | -11.13% | -1.834%
CCC(=O)N1CSCC1C(=O)N(C)CCc1ccccc1 (stereo not given) | -54.76% | -33.62%
COc1ncccc1NC(=O)N1CCC(C(=O)NC(C)C)CC1 | 8.542% | 3.352%
O=C(CCn1nc(C(=O)Nc2ccccc2)ccc1=O)Nc1nccs1 | - | 10.74%
COC(=O)c1cc(C(=O)N2CCCC(C)C2)n(-c2ccccc2)n1 (stereo not given) | - | 1.022%
CC(=O)N1CCC2(C1)c1ccccc1S(=O)(=O)N2CCC(C)C (stereo not given) | 31.25% | -19.4%
COc1ccc(CN(Cc2cc(C)no2)C2CC2)cc1 | 12.18% | -4.636%
Cc1ccc(Oc2ncccc2CNC2Cc3ccccc3C2)cn1 | - | 12.66%
COCC(=O)N1CCC(c2nc3ccc(N4CCCC4)cn3n2)CC1.O=C(O)C(F)(F)F | 49.96% | 7.604%
COc1ccc(F)cc1C(=O)N1CC(c2ccncc2)C1 | 25.03% | -35.93%
CC(Oc1ccc(F)cc1F)C(=O)N1CCC2(CC1)CC(=O)N(C)C2 (stereo not given) | -14.81% | 18.85%
CC(Cc1ccco1)NC(=O)Nc1cnn(CC(N)=O)c1 (stereo not given) | - | 9.141%
O=C(CCc1nc2cccnc2[nH]1)NCc1ccncc1 | -10.29% | -15.21%
O=C(O)C(F)(F)F.O=C(O)C(F)(F)F.[H][C@]12CCN(c3ncc(F)cn3)[C@@]1([H])CCC(COCc1cccnc1)O2 (stereo not given in full) | -8.419% | -4.901%
O=C(O)C(F)(F)F.[H][C@@]12CCCO[C@]1([H])[C@H](NS(=O)(=O)CC)CN(Cc1cc(C)on1)C2 | 8.055% | -0.09956%
[H][C@@]12CCN(C[C@@H]1CC)[C@@H](CNCc1ccc(N(C)C)cc1)C2 | - | 1.41%
COc1ccc(CNc2nc(N3CCOCC3)ns2)cc1 | - | -20.23%
CC(NC(=O)Cn1cc(-c2ccccc2)cn1)C1CC1 (stereo not given) | 4.481% | -17.29%
Cc1cnn(CCC(=O)N2CCCC(c3noc(C)n3)C2)c1 (stereo not given) | - | 5.525%
CN1CCc2[nH]cnc2C12CCN(Cc1ccc(S(C)(=O)=O)cc1)CC2 | 30.7% | 14.03%
Cc1sc2nc(C(F)(F)F)nc(N3CCCN(C)CC3)c2c1C | 12.9% | 4.578%
O=C(NCc1ccc2c(c1)OCCO2)N1CCC(CO)CC1 | 15.92% | 4.992%
Cc1ncc2c(n1)CN(Cc1cn3ccsc3n1)CC2 | - | -9.889%
Cc1cc(C)c(CNC(=O)N2CCC(N3CCNC3=O)CC2)c(=O)[nH]1 | -2.034% | -16.73%
Cc1nc(-c2ccc(Cl)cc2)n(CC(=O)NC(C)C)c(=O)c1CCO | -8.978% | 47.89%
O=C(O)C(F)(F)F.O=C(O)C(F)(F)F.[H][C@@]12CN(Cc3ccco3)C[C@]1([H])[C@H](OC)CCN2Cc1c(C)noc1C | 14.5% | 9.544%
Cn1ncc2c(=O)[nH]c(CN3CCCc4cc(F)ccc43)nc21 | 10.67% | 17.17%
CN1CCc2nc(C3CCN(C(=O)CCC4CCCC4)CC3)ncc2C1 | - | 104.5%
Cc1cnn(C2CN(CC(=O)NCCc3c[nH]c4ccccc34)C2)c1 | 3.819% | 23.47%
[H][C@@]12CS(=O)(=O)C[C@]1([H])NCCN2c1ccnc(N(C)CC)n1 | -3.435% | -0.05768%
CCn1cnnc1C1CCN(C(=O)c2c(C)oc(C)c2C)CC1 | 11.26% | 13.51%
COc1c(CNC2CCCc3ccccc32)c(C)nn1C (stereo not given) | 27.31% | 6.962%
Cc1cc(C)c(CNC(=O)C(C)Oc2cccc(C#N)c2)c(=O)[nH]1 (stereo not given) | 3.326% | -17.28%
CN(C)CCN1CCOCC12CCN(C(=O)C1CC1)CC2.O=C(O)C(F)(F)F.O=C(O)C(F)(F)F | 19.92% | -32.68%
N#Cc1ccc(OCCNc2cccc(C(=O)N3CCOCC3)c2)cc1 | -11.86% | -21.35%
O=C1NC(c2cnc(C3CCC3)s2)Nc2ccccc21 (stereo not given) | -38.14% | -6.036%
O=C(c1cnc(NCC2CCCO2)c(Cl)c1)N1CCOCC1 (stereo not given) | 5.434% | -34.52%
COc1cccc(Nc2nc(C3CCCNC3)c3sc(C)c(C)n23)c1.Cl (stereo not given) | 9.44% | -14.38%
Cc1cc(-c2nn3c(C4CC4)nnc3s2)on1 | -26.9% | -12.97%
Cc1ccc(CN2CCC(NC(=O)c3scnc3C)CC2)cc1 | - | -10.24%
COCCn1ccnc1C1CCCN(c2ncnc3c(C)csc23)C1 (stereo not given) | 20.59% | -24.73%
COCCCN(C)[C@@H]1c2ccccc2C2(CCNCC2)[C@H]1O | 29.79% | -18.86%
CC(C)N(C)Cc1cncc2c1CCN(CC(=O)N(C)C)C2.Cl.Cl.Cl | -25.17% | -18.67%
O=C(c1cnccn1)N1CCc2onc(CN3CCCC3)c2C1 | -25.84% | 17.63%
O=C(O)C(F)(F)F.[H][C@@]12C[C@H](C(=O)N3CCCCO3)CN(CCc3ccccc3)[C@]1([H])CCO2 | 19.88% | 4.306%
FC(F)(F)c1ccc2nc([C@H]3CCN(C4CCOCC4)C3)[nH]c2c1 | - | 5.789%
CN(c1cccnn1)C1CCN(C(=O)c2ccc3c(c2)COC3)CC1 | 8.466% | -9.273%
CN(CC1CCCC1)C(=O)c1cn(C)nc1-c1cccnc1 | - | -7.724%